Literature values as cited in US20190014793A1, “METHOD OF PROVIDING NUTRITION TO INFANTS” (ABBOTT LABORATORIES, priority 2011, published 2019).

Settings: essential amino acid profile; cited from earlier work

For Casein, the Histidine concentration is listed as 2.7 g per 100 g of protein, the Isoleucine concentration is listed as 5.6 g per 100 g of protein and the Leucine concentration is listed as 9.7 g per 100 g of protein. For the same substance, the Lysine concentration was 7.3 g per 100 g of protein, the “Met + Cys concentration” value was 3.0 g per 100 g of protein and the Threonine concentration was 4.2 g per 100 g of protein. For the same substance, the “Total essential amino acid concentration” value was 50.3 g per 100 g of protein, the Tryptophan concentration was 1.2 g per 100 g of protein and the “Tyr + Phe concentration” value was 9.9 g per 100 g of protein. For the same substance, the Valine concentration was 6.7 g per 100 g of protein.
